Out of some 52,000 sequences screened, about 210 (0.4%) were called active.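 How the source made its calls: active means gene whose silencing raises cell survival under the drug, median off-target-corrected z-score across its silencing RNAs 2 or more; inactive means the rest.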 This is one part of the list.
Test: Resistance to Poly (ADP-Ribose) Polymerase inhibitor: Gene Identification via Genome-wide siRNA Screen
Conditions: mouse BRCA2 R2336H ES cells, olaparib, CellTiter-Glo viability; active compounds read high
Method in brief: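 Mouse BRCA2 R2336H ES cells were reverse-transfected with siRNA (20 nM final), treated at 48 h with 500 nM olaparib, and read by CellTiter-Glo after 72 h. Scores: MAD-based z per siRNA, median per gene, seed off-target correction.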
In the case of CCCAAGAUGGUUUUAAGUUTT against Met, the z-score is reported as inactive: -0.643.
In the case of GGUGGGCUCAAGAACUUCUTT against MGC48079, the z-score is reported as inactive: 0.656.
In the case of “GGUUAUAGAGCGAGCAGCUTT against 2600016B03Rik”, the z-score is reported as inactive: 0.11.
In the case of GCCAAGAGCACAUCUGCUATT against AI848100, the z-score is reported as inactive: -0.907.
For GGCUGAAGAUCACCAAGAATT against Neurl, the z-score was inactive: -3.41.
For CGGAAUUAUGAUCAUUGAGTT against Bbx, the z-score was inactive: -2.25.
In the case of GGUCUUCAACCCUGUUUGGTT against Gpsm3, the z-score is reported as inactive: 0.405.
For GGAGCAUGGUUUUAUAAUATT against Rims2, the z-score was inactive: -0.452.
For “GAGAUUUACUCUGGACAUUTT against D8Ertd354e”, the z-score was inactive: -0.781.
For GGGAAGCUAGGCACUUCAUTT against Plk4, the z-score was inactive: 0.418.
In the case of “GGAAAUUGCAUGUGAAAUUTT against 5830434P21Rik”, the z-score is reported as inactive: -1.7.
For “GGACACAGGCCUAUAUUUUTT against 4933439F11Rik”, the z-score was inactive: 0.28.
In the case of GGAGUCUAAGUUAUAAUCUTT against Gm169, the z-score is reported as inactive: 1.05.
For “CCGUGUGGAAAAUAAAUUATT against 1700013G24Rik”, the z-score was inactive: 1.5.
With GGAUAAUAAUCACUACAUGTT against Mov10l1 the z-score was inactive: -1.34.
In the case of CCAGACAUUGUCUUUAUGGTT against Xrn1, the z-score is reported as inactive: -0.483.
With “CCAGUAAAGUAGGUUUUCUTT against D830032G16Rik” the z-score was inactive: 0.919.
With GGCUGUGGUCAAGAUCAAGTT against Atp2b2 the z-score was inactive: 0.46.
With CCAAGAUCACAUACCGUGATT against Acas2 the z-score was inactive: -0.0971.
With GGAAGACAAAGAUUCUAGUTT against Abcc1 the z-score was inactive: -0.414.
With GCCACCUCAAAUAACCGUCTT against Lat the z-score was inactive: 0.617.
For GCGGAGUGUGAAACACUGATT against Gm631, the z-score was inactive: 0.284.
In the case of GGGUUAACUUUUACUAUGGTT against Olfr570, the z-score is reported as inactive: 1.19.
For GCUUUCAGCUAUUGGACCCTT against Kl, the z-score was inactive: 0.583.
In the case of GGUCUGUCUCCAGAUUGCUTT against Olfr56, the z-score is reported as inactive: -1.13.
With “GGAUACAGGUUUGAGAUAUTT against 1810049K24Rik” the z-score was inactive: 0.768.
In the case of GGCUCUUCCAACAGUUCUUTT against Grk1, the z-score is reported as inactive: -0.959.
For GGCGGAAAAAGUGGAUAAUTT against Epim, the z-score was inactive: -1.32.
In the case of GCAGUUCUACUCUUACACCTT against Xylt1, the z-score is reported as inactive: -0.599.
With GGUAGAUGACUUUGACAACTT against Tnfsf9 the z-score was inactive: 0.308.
In the case of GGUCCCAACGAAGAAACCATT against Daf1, the z-score is reported as inactive: -0.321.
For GGGAAUUGCCAACUUGUUCTT against Olfr639, the z-score was inactive: 1.27.
For CCACCCUGUAUGAAUUUCUTT against Dscr6, the z-score was inactive: -1.41.
With “GGAUCUGUACCAUAGUGACTT against 2810489O06Rik” the z-score was inactive: 0.249.
With GGGUACUGUAAAUUGGUCUTT against Kpna2 the z-score was inactive: -0.826.
With CCCUAAGAGUCACCAAAAUTT against Nos2 the z-score was inactive: -0.824.
With GGAAACAAAGUCAAUGUGGTT against Cnn1 the z-score was inactive: 0.12.
With GGCAUAUACAAGGUAUUCUTT against Olfr393 the z-score was inactive: 1.18.
For GGAUAACUCAUUCAGAAUGTT against Capn7, the z-score was inactive: 0.234.
For GUUUGAGUCUGGAGACGUGTT against Commd4, the z-score was inactive: -1.55.
With “GGACUCUGCUUCCAUACUGTT against 9430086K21Rik” the z-score was inactive: -0.798.
With GGUCGAGCCAAGAAUUUGUTT against Pigo the z-score was inactive: 1.21.
In the case of “GGAAAUCAGAGAAUACUUCTT against 5730414C17Rik”, the z-score is reported as inactive: -0.0285.
For GGACCAUAGAUGAGAAAAGTT against Rfrp, the z-score was inactive: 0.12.
In the case of GCACCCAUAAGUUCUUAUATT against Hif1an, the z-score is reported as inactive: -0.772.
With GCAGCUGCACUAAAGAACGTT against Dlgh1 the z-score was inactive: 0.411.
With GGAGCUAGUAUUGAGCAACTT against Rnh1 the z-score was inactive: 1.28.
In the case of GGAUCACAGUCUCUUCGGUTT against Fgf20, the z-score is reported as inactive: -0.475.
With CGGAACAAUUCCAAGAAACTT against Isl2 the z-score was inactive: 0.324.
In the case of GCCACAGUGACUAUACUAGTT against Cdh16, the z-score is reported as inactive: 1.4.
For “GCCUCUCCCUACGGUAAAUTT against 4933425A18Rik”, the z-score was inactive: 0.697.
In the case of GCAGGAUUUUCACCAACAGTT against Gh, the z-score is reported as inactive: -1.63.
For GGAAUGCUUACACACCUCATT against Galns, the z-score was inactive: 0.34.
For GGGAGAAAAAAUCCACGAGTT against Tubg1, the z-score was inactive: -1.39.
With GCGACGGAAGUCUUUAUUATT against LOC329416 the z-score was inactive: 0.264.
For GGCCAAGAACUCUCUCAUGTT against Es2el, the z-score was inactive: 0.304.
With GCUGAGAGUUAAUUGAGCATT against Abcg8 the z-score was inactive: 1.75.
For “CCCACAUGUCCCGUCUUAUTT against 4930429B21Rik”, the z-score was inactive: -2.73.
With GCCAUAUACAGGUUCAAAGTT against Msh6 the z-score was inactive: 0.613.
In the case of GGAUGUUACGAAGAAGAUUTT against Ash1l, the z-score is reported as inactive: -0.231.
In the case of GGACUGUUAACUCUUGGCGTT against Slc7a1, the z-score is reported as inactive: 1.67.
In the case of “GGCCAGGACACUCAAAAACTT against A030003A19Rik”, the z-score is reported as inactive: 0.143.
For GGUCAAAAUGACCAAGGAUTT against Cte1, the z-score was inactive: -1.86.
For GGUCUUGCUGUUCGAAGAATT against Gsh1, the z-score was inactive: -1.15.
For GCCUGUCACUUUCUGAUAATT against Tpm2, the z-score was inactive: -1.45.
With “CGAGGUGAUUAAAGAGAUGTT against D630044F24Rik” the z-score was inactive: 0.603.
For GCUAUUGUAACACCUCAGGTT against Lef1, the z-score was inactive: -1.48.

From PubChem BioAssay AID1347423 (Functional Genomics Laboratory (NCATS/FGL), 2020)
